The text below walks through data of article PMC6687725.

By UniProt entry, the sequences of proteins in these tests, tags left out. Residues count along the entry.
UniProt Q9Z1J3, residues 59-459: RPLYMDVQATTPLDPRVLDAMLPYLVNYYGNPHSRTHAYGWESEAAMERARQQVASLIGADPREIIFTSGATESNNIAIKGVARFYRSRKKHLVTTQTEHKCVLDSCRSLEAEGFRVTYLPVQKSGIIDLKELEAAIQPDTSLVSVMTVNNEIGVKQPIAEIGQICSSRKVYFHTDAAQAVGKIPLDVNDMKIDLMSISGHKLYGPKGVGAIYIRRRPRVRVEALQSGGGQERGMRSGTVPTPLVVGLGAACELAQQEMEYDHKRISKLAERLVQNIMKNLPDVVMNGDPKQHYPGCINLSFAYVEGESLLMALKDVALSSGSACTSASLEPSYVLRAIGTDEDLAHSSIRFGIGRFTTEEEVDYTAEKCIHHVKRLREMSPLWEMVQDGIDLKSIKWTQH
UniProt P0A6A8: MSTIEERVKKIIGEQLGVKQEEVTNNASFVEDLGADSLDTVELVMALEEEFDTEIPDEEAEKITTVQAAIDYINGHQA

The target in the assay is NFS1 (mouse) (UniProt Q9Z1J3). Description: co-purification (Ni affinity, then size exclusion); His6-NFS1 co-expressed with ISD11 in E. coli; HiTrap chelating HP with nickel, 50 mM Na2HPO4, 150 mM NaCl, pH 8, imidazole gradient, then Superdex 200. A general note: Size exclusion chromatography separates by hydrodynamic size, large species first.

No constants are given. Whether binding was seen depends on the method and setting. Some binding calls cover weakened binding; strength is not graded here.

With ACP (from UniProt P0A6A8 1-78), the binding result is listed as “binds”.

B1: ISD11 (protein, UniProt Q8K215 1-91)
chain: MAASSRAQVLDLYRAMMRESKHFSAYNYRMYAVRRIRDAFRENKNVKDPVEIQALVNKAKRDLEIIRRQVHIGQLYSTDKLIIENQEKPRT
For B1, the binding result is reported as “binds”.
